The campaign covered roughly 340,000 compounds. About 170 (0.05%) were called active. This list was built around the results that the source calls inconclusive (neither active nor inactive); the mix of calls is not that of the screen. Calls follow the shape of the dose curve; as a rule, active = well fitted inhibition curve with a large enough effect in the signal ratio, with a control signal flat (not every such curve was filed as active); inconclusive = small, poorly fitted or top-dose-only effect, or effect the other way, or a change in a side signal; inactive = flat fitted curve, though single readings scatter; the % refers to the signal ratio. A potency beside an inconclusive call is a rough fit, not a confirmed value.
Assay: qHTS Assay to Find Inhibitors of Chronic Active B-Cell Receptor Signaling;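 as to activity change, negative = inhibition: plate controls were basal doxycycline-induced cells for no effect and cells given 10 µM MG132 for full effect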
Conditions: ABC-DLBCL IkBa-CBG/CBR reporter, luminescence ratio (green luciferase fused to IkBa over red control in TMD8 lymphoma cells), 4 h; activity change, negative = inhibition: at 46.1 µM (top of the series) unless noted
Summary of the method: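 TMD8 human ABC-DLBCL cells with doxycycline-inducible IκBα–green luciferase fusion and unfused red luciferase, in 0.5% FBS medium; compounds up to 46 uM, 4 h at 37C. Green/red luminescence ratio, filter-overlap corrected, fitted to concentration-response curves.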
Potency is read from the fitted curve at half-maximal effect.

Structure (SMILES) | Potency | activity change, negative = inhibition
Oc1[nH]c(=S)sc1C=C1N=c2ccccc2=N1 | inconclusive: 35.5 µM [falling, single point] | 
Cc1cc(NC(=O)CN2C(=O)NC3(CCCCCC3)C2=O)ccc1Br |  | inconclusive: -0.308%
Nc1ncnc2nc(SCc3ccc(Cl)cc3Cl)[nH]c12 |  | inconclusive: 15.7%
CCOC(=O)C1CCN(c2cc(=O)n(C3CCCCC3)c(=O)[nH]2)CC1 |  | inconclusive: 5.72%
COC(=O)c1[nH]c2cc(C)ccc2c1NC(=O)CN1CCCc2ccccc21 |  | inconclusive: 18.5%
COc1ccccc1NC(=O)Nc1nnc(Cc2ccccc2F)s1 |  | inconclusive: 5.45%
CC(C)(C)OC(=O)n1cc(/C=N/NC(=O)c2ccco2)c2ccccc21 |  | inconclusive: -22.7%
COc1ccccc1/C=N/NC(=O)CSc1ccc2ccccc2n1 | inconclusive: 35.5 µM [rising, single point] | 
Cc1cccc(NC(=O)C2SC(=Nc3c(C)cccc3C)C(C(=O)N3CCOCC3)=C2N)c1 (stereo unspecified) | inconclusive: 9.2 µM [falling, partial curve] | 
N#C/C(=C1\CCCN1)c1nc(-c2ccccc2)cs1 |  | inconclusive: 15.4%
Cc1ccc(C)c(S(=O)(=O)N2CCN(C(=O)c3n[nH]c(=O)c4ccccc34)CC2)c1 |  | inconclusive: -4.7%
CCNc1nc(CN2CCCCC2)nc2scc(-c3ccccc3)c12 |  | inactive: 0.0046%
CCn1c(SCC(=O)c2ccc(C)cc2)nnc1-c1ccncc1 |  | inconclusive: -19.4%
Cc1ccc(S(=O)(=O)Cn2cnnn2)cc1 |  | inconclusive: 1.21%
CCN(CC)CCN(Cc1cc2cc3c(cc2[nH]c1=O)OCCO3)C(=O)NC1CCCCC1 |  | inactive: -16.2%
CCCCNC(=S)NNC(=O)C1=NN(c2cc(C)ccc2C)C(=O)CC1 |  | inconclusive: 0.409%
Cc1ccc(CSCC(=O)N2CCCC2)cc1 |  | inactive: 8.78%
Cc1ccc2nc(Nc3nc(=O)c4ccccc4n3C)nc(C)c2c1 | inconclusive: 0.398 µM [falling, full curve] | 
FC(F)Oc1ccc(-c2csc(NNC3=NCCCCC3)n2)cc1 |  | inconclusive: 3.66%
O=C(COC(=O)C12CC3CC(CC(Cl)(C3)C1)C2)Nc1ccccc1 |  | inconclusive: -3.46%
Cc1cnc(C(=O)OCC(=O)Nc2ccc(Cl)cn2)cn1 |  | inconclusive: -8.72%

Structure (SMILES) | Potency | activity change, negative = inhibition
Nc1nc(SCC(=O)Nc2ccc(OC(F)(F)F)cc2)[nH]c(=O)c1NC(=O)c1ccc(Br)o1 |  | inconclusive: -4.29%
COc1ccccc1NC(=O)Cn1nnc(-c2ccccc2NS(=O)(=O)c2ccccc2)n1 |  | inactive: -6.92%
CCOC(=O)C1=C(N)n2c(s/c(=C\c3cccs3)c2=O)=C(C(=O)OCC)C1c1cccs1 (stereo unspecified) |  | inconclusive: -1.9%
O=C(Cc1cccs1)Nc1cccc(-c2nc3cc4ccccc4cc3[nH]2)c1 | inconclusive: 9.2 µM [falling, partial curve, poor fit] | 
Cc1cccc(NC(=O)C[n+]2ccc(N(C)C)cc2)c1 |  | inactive: 6.01%
O=C(CN1CCN(c2ccc(F)cc2)CC1)c1ccc2c(c1)OCO2 |  | inconclusive: -17.4%
O=c1[nH]cc(O)c(=O)[nH]1 | inconclusive: 7.94 µM [falling, partial curve, poor fit] | 
COc1ccccc1Nc1cc(C(=O)NCCCN(C)c2ccccc2)c2ccccc2n1 | inconclusive: 5.62 µM [falling, single point] | 
CCN(Cc1ccc2c(c1)OCCO2)C(=O)CSc1nc(C)nc2sc(C)c(C)c12 |  | inconclusive: 2.59%
O=c1cc(CN2CCN(c3ccccn3)CC2)nc2sccn12 |  | inactive: 2.76%
COc1ccc(CCN=C(NS(=O)(=O)c2ccc(Cl)cc2)c2ccccc2)cc1 |  | inconclusive: -10.2%
Cc1c(CCOC(=O)c2cccc([N+](=O)[O-])c2)sc[n+]1CC(=O)c1ccccc1 |  | inconclusive: 5.84%
CC1(C)CC(NC(=S)Nc2ccc([N+](=O)[O-])cc2)CC(C)(C)N1 |  | inconclusive: -0.616%
C(=C\c1ccccc1)/C=N/Nc1nc2ccccc2s1 | inconclusive: 22.4 µM [falling, partial curve] | 
CCOC(=O)c1cc2occc2n1CC(=O)N1CCCc2ccccc21 |  | inactive: 10.1%
O=C1C=C(/C=C/C2C=CC=CC2)C[C@@H](c2ccc(Cl)cc2)C1 (stereo partly specified) |  | inconclusive: 9.4%
CC(=O)NC(c1ccc(Cl)cc1Cl)c1ccc2cccnc2c1O (stereo unspecified) |  | inconclusive: -12.4%
O=C(NNC(=S)Nc1ccc(F)cc1)[C@H]1C[C@@H]1c1ccccc1 |  | inconclusive: -8.5%
Cc1ccc(C)c(C(=O)CN2C(=O)C(=O)N(C3CCCC3)C2=O)c1 |  | inconclusive: -1.61%
O=C(CNC(=O)c1sc2ccccc2c1Cl)NC1CC1 | inconclusive: 2.82 µM [falling, partial curve, poor fit] | 
C[n+]1nc(Nc2ccccc2)sc1-c1ccc(C(=O)O)cc1 | inconclusive: 22.4 µM [falling, partial curve] | 

Structure (SMILES) | Potency | activity change, negative = inhibition
O=C(Nc1ccc(Cl)cc1)Nc1ccc(C(=O)N2CCOCC2)cc1 |  | inconclusive: -11.6%
S=C(NCCc1ccccc1)Nc1ccc(Br)cc1 |  | inconclusive: 11.2%
COc1cccc(N2CC(NC(=O)/C=C\c3ccc4c(c3)OCO4)CC2=O)c1 (stereo unspecified) | inconclusive: 10 µM [falling, single point] | 
CCn1c(COC(=O)CNC(=O)c2cc(OC)c(OC)c(OC)c2)nc2cc(S(=O)(=O)N(C)C)ccc21 |  | inconclusive: -81.2%
N#Cc1c(-c2ccccc2)nc2n(-c3ccccc3)nc(C(=O)Nc3ccccc3)n2c1=O |  | inconclusive: -1.05%
NC(=O)c1cc([N+](=O)[O-])ccc1NCC1CCCCC1 |  | inconclusive: 7.11%
COc1ccccc1N1CCN(C(=O)c2ccc(S(=O)(=O)N3CCCC3)cc2)CC1 |  | inconclusive: -14.9%
C[C@H](CO)N1C[C@H](C)[C@@H](CN(C)C(=O)Nc2ccccc2)Oc2c(NS(=O)(=O)c3cccs3)cccc2C1=O |  | inconclusive: -0.0464%
Cc1ccc(/C(N)=N/OC(=O)N2CCOCC2)cc1 |  | inconclusive: -17.8%
CCOC(=O)C1CCN(C(=O)c2cc3cc(C)ccc3[nH]2)CC1 | inconclusive: 6.31 µM [falling, full curve] | 
O=C(Nc1ccc(Cl)cc1)Nc1ccon1 |  | inconclusive: 1.96%
Nc1ncnc2c1ncn2[C@@H]1O[C@H](CNCc2cccc(C#Cc3ccccc3)c2)[C@@H](O)[C@H]1O |  | inconclusive: -12.1%
CCOc1ccccc1NC(=O)COn1nnc2ccc(Cl)cc21 |  | inconclusive: -11.2%
c1cc2c3c(cccc3c1)NC1(CCC3(CC1)Nc1cccc4cccc(c14)N3)N2 |  | inconclusive: -0.764%
Cc1nc(-c2ccc(C(F)(F)F)cc2)sc1C(=O)NN |  | inconclusive: -18.5%
CCOC(=O)c1c(C)sc2c1N(C(=O)CCl)c1cc(Cl)ccc1S2 | inconclusive: 3.98 µM [falling, single point] | 
Cc1oc2cc3oc(=O)c(CCC(=O)NCc4ccccn4)c(C)c3cc2c1C |  | inactive: 12.2%
CCN(C(=O)Cn1c([N+](=O)[O-])cnc1C)c1ccccc1 |  | inconclusive: 2.93%
CCCN(CC(=O)Nc1ccccc1OC)C(=O)c1ccc(S(=O)(=O)Nc2ccccc2)cc1 | inconclusive: 25.9 µM [falling, single point] | 
CCOc1ccc(CCN2C(=O)c3cccnc3C2=O)cc1OCC | inconclusive: 22.4 µM [falling, single point] | 
Cc1ccc(CNC(=O)CSc2ccsc2[N+](=O)[O-])cc1 |  | inactive: 0.591%

Structure (SMILES) | Potency | activity change, negative = inhibition
COc1cc2cc(NC(C)=O)cc(NCc3ccccc3)c2cc1OC |  | inconclusive: -16.6%
CN(C)S(=O)(=O)c1cccc(NC(=S)NC(=O)C2CCCCC2)c1 |  | inactive: 2.26%
Nc1nc(-c2ccccc2)cc(C(F)(F)F)n1 | inconclusive: 5.8 µM [rising, full curve, poor fit] | 
O=C(Nc1cc(Cl)cc(Cl)c1)c1ccc(F)c(S(=O)(=O)NC2CCCC2)c1 |  | inconclusive: -2.36%
Cc1cccc(CN2C(=O)c3ccccc3Sc3ccc(C(=O)N4CCCC4)cc32)c1 |  | inactive: -0.765%
O=C(Nc1nccs1)c1cccc(S(=O)(=O)N2CCCC2)c1 |  | inconclusive: 6.08%
Cc1cccc2nc(-c3ccccc3)nc(N3CCC(O)(c4ccc(Cl)cc4)CC3)c12 | inconclusive: 18.4 µM [falling, partial curve] | 
COc1ccc2nc(SCC(=O)Nc3ccc4c(c3)CCC4)[nH]c2c1 |  | inconclusive: -13.5%
CCc1ccc(OCC(=O)NNCC(=O)Nc2ccc(OC)cc2)cc1 |  | inactive: -12.4%
CN(C)S(=O)(=O)Oc1cc(Cl)ccc1C(=O)Nc1ccc(F)cc1F |  | inconclusive: 5.47%
Cc1cc(C(=O)CN2CCC(C)CC2)c(C)n1-c1ccc(F)cc1 |  | inconclusive: -10.8%
Cn1c(=O)[nH]c(=O)c2[nH]c(N(Cc3ccccc3)Cc3ccccc3)nc21 |  | inconclusive: 1.35%
CC(=O)Nc1ccc(S(=O)(=O)NC(C)C(=O)NCCc2ccc(F)cc2)cc1 (stereo unspecified) |  | inconclusive: -6.36%
O=C(CCl)Nc1ccccc1C(=O)c1ccccc1 | inconclusive: 35.5 µM [falling, single point] | 
COc1ccccc1N1C(=O)CC(Sc2nc(C)cc(C)n2)C1=O (stereo unspecified) |  | inconclusive: -0.502%
CCCNC(=O)c1ccc2c(c1)C1C3CCC(C3)C1C(c1ccccc1)N2 (stereo unspecified) |  | inconclusive: -17.7%
C=C(C)Cn1cnc2c(oc3nc4c(cc32)CCCC4)c1=O |  | inconclusive: 13.2%
COc1cc2c(-c3cc(F)cc(F)c3)c(-c3ccsc3)oc(=O)c2cc1OC |  | inactive: -5.95%

In the list so far, 12 contain fluorine:
Structure (SMILES) | Potency | activity change, negative = inhibition
COc1ccccc1NC(=O)Nc1nnc(Cc2ccccc2F)s1 |  | inconclusive: 5.45%
FC(F)Oc1ccc(-c2csc(NNC3=NCCCCC3)n2)cc1 |  | inconclusive: 3.66%
Nc1nc(SCC(=O)Nc2ccc(OC(F)(F)F)cc2)[nH]c(=O)c1NC(=O)c1ccc(Br)o1 |  | inconclusive: -4.29%
O=C(CN1CCN(c2ccc(F)cc2)CC1)c1ccc2c(c1)OCO2 |  | inconclusive: -17.4%
O=C(NNC(=S)Nc1ccc(F)cc1)[C@H]1C[C@@H]1c1ccccc1 |  | inconclusive: -8.5%
Cc1nc(-c2ccc(C(F)(F)F)cc2)sc1C(=O)NN |  | inconclusive: -18.5%
Nc1nc(-c2ccccc2)cc(C(F)(F)F)n1 | inconclusive: 5.8 µM [rising, full curve, poor fit] | 
O=C(Nc1cc(Cl)cc(Cl)c1)c1ccc(F)c(S(=O)(=O)NC2CCCC2)c1 |  | inconclusive: -2.36%
CN(C)S(=O)(=O)Oc1cc(Cl)ccc1C(=O)Nc1ccc(F)cc1F |  | inconclusive: 5.47%
Cc1cc(C(=O)CN2CCC(C)CC2)c(C)n1-c1ccc(F)cc1 |  | inconclusive: -10.8%
CC(=O)Nc1ccc(S(=O)(=O)NC(C)C(=O)NCCc2ccc(F)cc2)cc1 (stereo unspecified) |  | inconclusive: -6.36%
COc1cc2c(-c3cc(F)cc(F)c3)c(-c3ccsc3)oc(=O)c2cc1OC |  | inactive: -5.95%

Looked up by structure from above, 2 records:
Structure (SMILES) | Potency | activity change, negative = inhibition
COc1ccccc1N1C(=O)CC(Sc2nc(C)cc(C)n2)C1=O (stereo unspecified) |  | inconclusive: -0.502%
COc1ccc2nc(SCC(=O)Nc3ccc4c(c3)CCC4)[nH]c2c1 |  | inconclusive: -13.5%

Source: PubChem BioAssay AID493014 (National Center for Advancing Translational Sciences (NCATS), 2011)
